Measurements: the supplement of paper PMC3334620
Over roughly 33,000 sequences, “E-score (-0.5 to 0.5)” has its median near -0.015; the highest 2% begin near 0.3. The list shows a part of the results.

What follows are sequences tested against T1, Abf1 (UniProt P14164) (assay: PBM E-score (8-mer binding enrichment) (E-score (-0.5 to 0.5)); higher = stronger / more preferred TF binding). Details: protein concentration: 200 nM; construct: GST-full length.
T1 sequence: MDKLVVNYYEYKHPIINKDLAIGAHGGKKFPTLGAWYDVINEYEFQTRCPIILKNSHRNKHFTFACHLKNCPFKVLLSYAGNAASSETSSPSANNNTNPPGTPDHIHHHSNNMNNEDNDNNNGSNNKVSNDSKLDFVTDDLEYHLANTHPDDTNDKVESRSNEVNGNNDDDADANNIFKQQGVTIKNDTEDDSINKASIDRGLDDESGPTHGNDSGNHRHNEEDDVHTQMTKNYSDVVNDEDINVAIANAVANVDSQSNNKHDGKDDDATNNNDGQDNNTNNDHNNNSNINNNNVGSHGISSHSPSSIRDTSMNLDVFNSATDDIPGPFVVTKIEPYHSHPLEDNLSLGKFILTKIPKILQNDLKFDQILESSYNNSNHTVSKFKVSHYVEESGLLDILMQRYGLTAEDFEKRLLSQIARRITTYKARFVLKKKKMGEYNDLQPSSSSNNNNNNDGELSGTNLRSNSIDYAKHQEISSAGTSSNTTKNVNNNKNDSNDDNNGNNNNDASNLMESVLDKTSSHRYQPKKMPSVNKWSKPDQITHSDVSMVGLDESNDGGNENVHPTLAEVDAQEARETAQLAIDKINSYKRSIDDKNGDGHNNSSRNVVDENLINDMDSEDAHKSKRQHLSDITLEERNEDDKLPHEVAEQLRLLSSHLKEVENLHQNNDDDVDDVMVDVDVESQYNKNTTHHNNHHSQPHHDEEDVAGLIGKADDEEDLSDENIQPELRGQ
How it was run: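 PURExpress in vitro transcription/translation supplied GST-tagged yeast transcription factors, either full-length or DNA-binding domain. Applied at about 100-200 nM to universal all-10-mer Agilent arrays double-stranded by primer extension, the bound protein was detected with fluorescent anti-GST. E-scores, modified Wilcoxon-Mann-Whitney statistics, were given by the Universal PBM Analysis Suite to ungapped eight-base words pooled with their reverse complements after masliner normalisation.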

Sequence	PBM E-score
GGCCTTAA	0.0402
AAGCAGGA	0.0785
CCATATGG	-0.0604
ATGTGACC	0.0245
ATGAGAGA	-0.0525
CTGAGTCA	0.0134
AACCAAGT	0.179
AGACGATA	0.27
AATGCGGA	-0.0199
TACCGGTA	-0.238
GGGCTGTA	-0.205
ATAGGAGA	-0.169
GGCCGTAA	0.121
AGCTAGAT	0.104
TAGGTTCA	-0.164
CCCCTTGA	-0.179
ATCCACAC	-0.103
TACTTCCA	0.0905
CGTCGGTC	0.0377
AAGTGTCG	0.081
GATGATCA	0.329
GCCATACA	0.0623
ACTAATCG	0.0732
GAGCACGA	0.171
CGCGCTAG	0.1

Looked up above.
Entry for GGCCTTAA under PBM E-score: 0.0402
Entry for AACCAAGT under PBM E-score: 0.179

(next part)

Sequence	PBM E-score
TGCCTACA	-0.212
ACTAGGGG	-0.143
AATGTAAA	0.204
GTGGTTAA	0.142
GCGGGGAC	-0.161
CGTCGTGC	0.315
AGGTATAA	0.17
GCAGACAC	-0.0656
ATCAAATG	0.122
CCGGAATA	-0.0142
GTTAAGCA	-0.103
GTTAGCTA	-0.222
CGGCATGC	-0.114
AGAATGCA	-0.0484
AACCATGC	0.0503
AGTTAAAC	0.00744
ACGGCCAG	0.212
AAAGTCAA	-0.082
TAAATGAA	-0.0744
GCTCTGAC	-0.0706
CCGGAACA	0.0276
ACCACATG	0.0821
GGCCCAAC	-0.163
CTGCCAAC	0.0337
ACTTAGGC	-0.111

Sequence	PBM E-score
ACCCCGTC	-0.125
CCCGGAGG	-0.341
CACTCTAG	-0.0155
GATCACAC	0.118
CGGTTCCA	-0.112
GCTGTCAC	0.197
AGGGTTTC	-0.165
CCTTATTC	-0.168
ACAACGTA	0.0482
ACACCGCC	-0.25
AGAACGGG	-0.0329
CTGAAAAA	-0.193
CGGCCCCG	0.0002
AGGGTTAC	-0.0529
AAATCAAT	0.142
AACAAGAT	0.133
CAACCGCG	0.0301
CGATGCAC	0.0188
AGTCCAGG	-0.19
GCAGGCAA	-0.1
CTATCTAA	-0.0314
CAAACATC	0.0506
AACGCGCC	-0.248
AAATAGTT	0.0304
TATCAGGA	0.086

Sequence	PBM E-score
ACAGGTAC	-0.146
CCCATTGC	-0.186
GCGGACGC	-0.291
CTCGACTC	-0.0367
ACCTACAA	0.0806
ATGGTAAG	-0.108
GAAATTCC	-0.102
GCGCTCAA	-0.125
CACCCTAA	0.0127
ACAGTTCA	0.11
CATTCTGA	0.0829
GGATGGAC	-0.0851
GTCTGTAA	0.0954
GAACGATC	0.298
TCACTGGA	0.116
CCTCCCGA	-0.188
CTACCCGC	-0.0209
CGCCTCCA	-0.126
ATCACTGC	0.32
AATTCTGG	-0.188
CATCGAAG	0.06
ATTCGTGC	0.173
GATTCGTA	0.262
AACAACCC	-0.06
CTGTCCTA	-0.0805

Sequence	PBM E-score
CCCCTTAG	-0.23
ACTAGTCG	-0.143
CGATTGCA	0.163
ACTCTAAG	-0.156
AAGTGCTG	0.257
TGATAGAA	0.0481
AATGTTGA	-0.163
GATTCTTA	0.235
AAAGGCTT	-0.251
TCTCCAAA	-0.0776
CGCTATCC	0.0588
AGGTCTAC	-0.124
ACTCATTC	-0.102
GTATATTA	0.102
ACTTATTA	0.047
ACCAGTTC	-0.114
CATAAGCG	-0.178
CCTTGGCG	-0.218
CGAATAGA	-0.0743
GCACTCGA	-0.12
CTTCCACC	-0.204
CCGGTACG	0.0211
AGGAGTAA	-0.139
GAGCTTAA	-0.125
GCTGTTCC	-0.237

Sequence	PBM E-score
ATGCTATG	0.102
AAGTTGGC	-0.168
ATCAGGGA	-0.0561
GCCATCCA	-0.171
CGTGTGAC	0.11
CCGGAGAA	-0.225
ATCTAGTA	0.175
GTCCGTAA	0.239
ACGAAACT	0.336
GCGCCCAC	-0.012
AGAGGGCA	-0.0417
ATAGCGAC	0.232
ACATGTCT	-0.0552
AAAGTGAG	0.2
CGCAGCGC	-0.253
ATTCGTCC	0.296
ATATACGA	0.324
ATGACTGA	-0.0877
GAACCGCA	-0.0218
AACCTAGA	0.0342
AAGCAACG	0.0263
GTCTCTTA	-0.0443
CGCATTCA	0.0242
AATGCTAC	0.0314
CTAGTGGA	-0.237

For reference, part of the list above:
Sequence	PBM E-score
CCGGAGAA	-0.225
ATCTAGTA	0.175

(list continues)

Sequence	PBM E-score
ACGGGTCG	0.0659
ATATCACC	0.438
CGCGCCAA	-0.173
TGAAGGAA	0.153
CCGTTCTA	0.032
CGCATCAG	-0.057
CCGCAACA	-0.0444
ACGAAGCT	0.278
AGAGCCGC	-0.174
ACATTGGA	-0.0535
ATGTAGCC	-0.047
ATTTAATG	0.107
ATGATCAA	0.273
GGTCCTAC	-0.126
CCGGTTAC	-0.0314
ATCAACCA	0.181
CCGAGCCG	-0.181
AGCGCTGA	0.0277
CATGGCAG	-0.141
GCTGATCA	0.139
TATTGAAA	0.0891
ATTCTTGA	0.155
